Results taken from patent US20030190364A1, “Biological affinity based delivery systems” (priority 2002, published 2003).
“Also recorded” adds a separate entry of the source.

Legend:
[1] = Preliminary diffusion study, wash-out of peptides from heparin:PEG10-4PBD1 gels in 96-well plate; settings: for peptide recovered after 18 washes: 10% gels 2:1 heparin:PEG10-4PBD1, 1:4 peptide:heparin, PBS pH 7.4 washes
[2] = Diffusion of heparin-binding peptides from heparin-based gels in dispodialyzers; settings: for Initial Release Rate (% of total peptide released per day): 10% gels 1:2 heparin:PBD1-conjugated 4 arm PEG, 2 peptides per heparin, into PBS
[3] = heparin gel in dispodialyzer, PBS
[4] = control: peptide-conjugated PEG and PBD3 alone, no heparin

Substance | peptide recovered after 18 washes [1] | Initial Release Rate (% of total peptide released per day) [2] | peptide recovered/released after 2 weeks [2, 3] | peptide recovered after 18 washes, control solutions ([1]; control: PEG10-4PBD1 and PBD3 without heparin) | Initial Release Rate (% of total peptide released per day), control without heparin [2, 4] | release rate, control without heparin (in words) [2, 4] | diffusion rate out of heparin gel (in words) ([2]; gels containing heparin) | peptide released after one day [2, 3]
FITC-A(β)AAFAKLAARLYRKAGC (AAAFAKLAARLYRKAGC; FITC-beta-Ala N-terminal) [PBD2] | about 60% | 1.3 % of total peptide released per day | – | – | – | – | – | –
FITC-A(β)GGGGYGRKKRRQRRR (AGGGGYGRKKRRQRRR; FITC-beta-Ala N-terminal) [TAT, reference compound] | – | 0.04 % of total peptide released per day | Almost none; also recorded: did not release | – | – | – | – | –
FITC-A(β)KAFAALAARLYRKAGC (AKAFAALAARLYRKAGC; N-terminal FITC-beta-alanine) [PBD3, PBD3 control is the same peptide tested without heparin] | approximately 80% | 3.4 % of total peptide released per day | – | all | 25 % of total peptide released per day | fast rate | faster diffusion rate than PBD2 | –
RGDS [reference compound] | – | 93 % of total peptide released per day | – | – | – | – | – | almost all
